Ends that are not written are not given here.
Test: general procedure: Fmoc solid-phase peptide synthesis; Chloro trityl chloride resin (CTL resin, Nova Biochem Cat. No. 01-64-0021); HoBt/Bop/DIEA
Details: whole synthesis

## PPRACPTARALCEIR (cysteine pairing not given here)
  crude mass: 0.65 g
Scale of the general procedure 700 mg resin
  crude yield: 93%

— patent US10221227B2 (INDUSTRY FOUNDATION OF CHONNAM NATIONAL UNIVERSITY, priority 2015, dated 2019)
